Results taken from paper PMC5520684.
No constants are given. Whether binding was seen depends on the method and setting. Binding seen in cells or lysates may run through a third protein. Some binding calls cover weakened binding; strength is not graded here. Tags and fused reporters may be left off the sequences shown. Blank lines part the entries; values can stand above or below the binder they belong to.

What was measured:
Flag-tagged praja2 = target: T1, Flag-tagged praja2 (UniProt O43164); test: co-IP; HEK293 cells, transfected, MG132 (20 uM) for 6 h; lysates immunoprecipitated with anti-praja2 or anti-His antibody or normal IgG overnight at 4 °C, protein G-Agarose; immunoblotting
T1 sequence: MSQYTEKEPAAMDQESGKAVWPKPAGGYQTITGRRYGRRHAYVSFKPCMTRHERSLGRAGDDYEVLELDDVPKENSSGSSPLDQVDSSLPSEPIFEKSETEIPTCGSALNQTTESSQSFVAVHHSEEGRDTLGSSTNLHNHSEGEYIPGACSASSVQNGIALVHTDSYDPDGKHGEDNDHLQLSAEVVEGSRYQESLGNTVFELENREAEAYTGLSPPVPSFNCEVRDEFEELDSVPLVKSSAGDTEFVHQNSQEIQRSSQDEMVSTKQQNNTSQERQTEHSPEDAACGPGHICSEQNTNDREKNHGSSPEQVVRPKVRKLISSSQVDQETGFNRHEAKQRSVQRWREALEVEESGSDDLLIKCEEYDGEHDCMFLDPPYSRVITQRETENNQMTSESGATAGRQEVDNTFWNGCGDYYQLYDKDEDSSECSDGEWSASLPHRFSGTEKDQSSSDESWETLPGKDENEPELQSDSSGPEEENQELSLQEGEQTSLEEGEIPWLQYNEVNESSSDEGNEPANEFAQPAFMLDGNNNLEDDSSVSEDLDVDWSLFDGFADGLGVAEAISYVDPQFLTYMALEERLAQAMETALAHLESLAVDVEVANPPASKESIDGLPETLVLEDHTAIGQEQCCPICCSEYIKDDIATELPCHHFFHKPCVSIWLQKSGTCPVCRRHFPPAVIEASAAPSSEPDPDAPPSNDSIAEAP

[1] = target: T2, GST-praja2 fusion protein (UniProt O43164); test: pull-down; GST-praja2 or GST immobilised on glutathione Sepharose 4B beads, incubated overnight at 4 °C with HEK293-MFHAS1 lysate; binding buffer 20 mM Na3PO4, 0.5 M NaCl, 30 mM imidazole pH 7.4; blots with anti-GST and anti-HA; only the target purified
T2 sequence: T1 sequence

- binding (Flag-tagged praja2): binds
B1: His-tagged MFHAS1 (protein, UniProt Q9Y4C4 1-1052)
chain: MAGMDSGNLKTARLWRDAALRARKLRSNLRQLTLTAAGACPGAGADALESPASPQLVLPANLGDIEALNLGNNGLEEVPEGLGSALGSLRVLVLRRNRFARLPPAVAELGHHLTELDVSHNRLTALGAEVVSALRELRKLNLSHNQLPALPAQLGALAHLEELDVSFNRLAHLPDSLSCLSRLRTLDVDHNQLTAFPRQLLQLVALEELDVSSNRLRGLPEDISALRALKILWLSGAELGTLPAGFCELASLESLMLDNNGLQALPAQFSCLQRLKMLNLSSNLFEEFPAALLPLAGLEELYLSRNQLTSVPSLISGLGRLLTLWLDNNRIRYLPDSIVELTGLEELVLQGNQIAVLPDHFGQLSRVGLWKIKDNPLIQPPYEVCMKGIPYIAAYQKELAHSQPAVQPRLKLLLMGHKAAGKTLLRHCLTEERVEGCPGGGDKEKCYPPSPPPVSKGIEVTSWTADASRGLRFIVYDLAGDESYEVIQPFFLSPGALYVLVVNLATYEPRHFPTTVGSFLHRVGARVPHAVVCIVGTHADLCGERELEEKCLDIHRQIALQEKHDAEGLSRLAKVVDEALARDFELRSASPHAAYYGVSDKNLRRRKAHFQYLLNHRLQILSPVLPVSCRDPRHLRRLRDKLLSVAEHREIFPNLHRVLPRSWQVLEELHFQPPQAQRLWLSWWDSARLGLQAGLTEDRLQSALSYLHESGKLLYFEDSPALKEHVFHNLTRLIDILNVFFQRDPSLLLHKLLLGTSGEGKAEGESSPPMARSTPSQELLRATQLHQYVEGFLLHGLLPAHVIRLLLKPHVQAQQDLQLLLELLEKMGLCYCLNKPKGKPLNGSTAWYKFPCYVQNEVPHAEAWINGTNLAGQSFVAEQLQIEYSFPFTFPLGLFARYSVQINSHVVHRSDGKFQIFAYRGKVPVVVSYRPARGVLQPDTLSIASHASLPNIWTAWQAITPLVEELNVLLQEWPGLHYTVHILCSKCLKRGSPNPHAFPGELLSQPRPEGVAEIICPKNGSERVNVALVYPPTPTVISPCSKKNVGEKHRNQ

- binding [1]: binds
B2: HA-tagged MFHAS1 (malignant fibrous histiocytoma amplified sequence 1) (protein, UniProt Q9Y4C4 1-1052)
chain: B1 chain
